Experimental data published in paper PMC10128014.
No constants are given. Whether binding was seen depends on the method and setting. Binding seen in cells or lysates may run through a third protein. Some entries that bind do so weakly or less than the wild type. Sequences can lack the tags named with a protein.

Molecular target: C. albicans Ent2 ENTH domain, wild type, C-terminally tagged with His6-FLAG3 (ENTH^WT-His6-FLAG3) (C. albicans)
Assay: co-IP; lysates of C. albicans ent2Δ/ent2Δ cells grown at 30°C or 39°C; 2 mg total protein with anti-FLAG M2 agarose overnight at 4°C; 200 mM Na-HEPES pH 7.5, 100 mM KCl, 20% glycerol; blots with anti-FLAG (ENTH) and anti-GFP (Rga2)

B1: C. albicans Rga2, N-terminally tagged with GFP (GFP-Rga2) (protein, UniProt Q5AMQ3 1-1176)
chain: MPELVPPTNNRPHIHETPELSSQPSLDSNRQPRELCKKCNQLIVEGHAYELGDDRWHIHCFNCSKCNTSLGCNSNFLVLGNGNLICSNCSYNCKQCGRKIDDLAILTGDQAYCSNCFKCRSCKNKIEDLRYARTSKGLFCMDCHQKLMAKKKKYDAKKKHLALLQEKRVQLEREKDQRELQILEDHKRSVNSSRNSLIQSYMNNQNNQSGESLLYQQNNRSVTSVTSSKNKSLPLPPTSTSPARPTPYSANSYQSKESISGKNKTDTSLGSLSTSQTFSEHTNKGGSTMHSSTGLHNPPIFQSDNDFSIEEVQNSSDSDSNGDEKKSNSTSLRNKSSNRNSRVSPFVNQYSTPPLSSDHLNTDEISADTGERTVYLDVIDTPPESQADPLAGNQLKPALDVSPGRNTEQKSKSFLILSPNQFHDNEFHNTRSPMIDSPGTIISSNSNQNTKAVNLSVEDRPRSACPSPFAKVNRQARVVETNDEISTDGVDEDLAIGTPRQEHSRAGTLKSVSSPPPKVPLPSTPSRGEDISKKFSFVETPKGLGLEGVDYDNHEDQRSYIKSQQDQRQHDISEKTSPSSIMSTPKRVVGNFSPAVTNLEPKNSDLSNDQQHKHSQKNQNVSRTASLIKNLKHKRSTSGNQNKLAALFTTGSKEDHRNGHTRQTSDGSLFSSIANAYISPPITNGALGGRNHIRSTSDSTVLLSDEDHHYSNVAVKNDIEQLNSSKVLLEEDVKKLRDERHKLNEQLKMIQSKISSESIRYDNLVAEISELQIQKTKITNENKDLIEQQKNRQASGATGKLSTSSSNDSDPDASTLGKSVNTHLSPYKSSSDSTSVVSRENFEYSDHLSPDRHQGQFQQHQQYQQQYQQQQPQQQLIEDEQAHKATRLKFWRRPKVGTTQVISSNEYNNNGNGHNNGARIPNSFSTQALRIPAHNSGSSFNNNGANNNNQQNKFSKSKSSNVLDSLLSGDSSQVPLFNSTLQQRAEYEKSQVPIIITRCLAEVEKRGLDFEGIYRISGGNSAIVSIENAFSSLSNDPDEKQLNRVDETLDVDIHAVTSALKRYLRKLPDPVIPFDLYDDFIKVSTKASHSKEVRIAELQKIVNKLPPANRETLRLIVNHLHLVNSLKDINKMGYKNLSVVFAPTLAKDESGVKEMTDMGFRNDTTELLLTESHRIF
binding: binds
